Laboratory results taken from PMC12591124.
Results are given in words; binding and its absence hold for the method and conditions named. In cells and extracts the contact can be indirect. A result given as binding can be weak or reduced; the word gives no strength. Each block holds one substance with its values, some of them ahead of it.

Chains of the proteins cited; added tags and fusions are not shown. Lines headed by an entry give the natural chain unless they say otherwise; changes in a name come on top.
UniProt P08670: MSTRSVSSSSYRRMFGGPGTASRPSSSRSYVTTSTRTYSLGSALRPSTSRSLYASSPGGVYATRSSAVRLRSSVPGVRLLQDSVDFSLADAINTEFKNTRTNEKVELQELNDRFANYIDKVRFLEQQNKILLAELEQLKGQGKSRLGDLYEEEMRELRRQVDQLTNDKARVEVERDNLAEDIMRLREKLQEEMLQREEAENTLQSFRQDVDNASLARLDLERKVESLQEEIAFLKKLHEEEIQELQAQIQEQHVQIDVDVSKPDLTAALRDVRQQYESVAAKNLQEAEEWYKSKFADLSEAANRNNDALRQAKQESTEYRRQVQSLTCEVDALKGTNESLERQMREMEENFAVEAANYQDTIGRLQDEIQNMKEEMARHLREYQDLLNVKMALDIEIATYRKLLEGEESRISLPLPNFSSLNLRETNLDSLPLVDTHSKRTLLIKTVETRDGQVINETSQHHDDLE
UniProt Q99873: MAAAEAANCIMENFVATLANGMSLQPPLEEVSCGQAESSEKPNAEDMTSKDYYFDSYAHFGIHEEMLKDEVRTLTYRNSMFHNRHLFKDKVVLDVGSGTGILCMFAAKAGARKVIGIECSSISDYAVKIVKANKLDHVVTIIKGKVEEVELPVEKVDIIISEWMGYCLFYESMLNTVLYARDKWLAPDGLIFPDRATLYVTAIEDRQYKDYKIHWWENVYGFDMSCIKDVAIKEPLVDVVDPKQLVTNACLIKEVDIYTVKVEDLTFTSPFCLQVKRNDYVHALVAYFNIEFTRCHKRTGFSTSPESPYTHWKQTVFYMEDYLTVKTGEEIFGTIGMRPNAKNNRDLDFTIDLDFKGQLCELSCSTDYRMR

What was measured:
[1] = biological target: Flag-vimentin (HeLa) (human) (UniProt P08670); assay: co-IP; HeLa cells, normoxia or hypoxia (12 h) (Figure S4D); constructs not told in the text shown
[2] = biological target: Flag-vimentin (HEK293T) (human) (UniProt P08670); assay: co-IP; anti-Flag beads precipitate Flag-vimentin, HA-PRMT1 detected (Figure S4A); CoCl2 time course in HEK293T (Figure S4C: less at 2 h, more at 8 h); NP-40 lysis buffer, 4 °C, 2 h
[3] = biological target: Flag-PRMT1 (HEK293T, of the Flag-PRMT1-8 set) (human) (UniProt Q99873); assay: co-IP; HEK293T transfected with Flag-PRMT1-8, 48 h; lysates precipitated with anti-Flag beads; blot for endogenous vimentin; NP-40 lysis buffer, 4 °C, 2 h

binding [1]: binds
Substance: PRMT1 (HeLa, Figure S4D) (from UniProt Q99873) (enzyme)

binding [2]: binds
Substance: HA-PRMT1 (reciprocal co-IP, Figure S4A) (from UniProt Q99873) (enzyme)

binding [3]: binds
Substance: vimentin (endogenous, HEK293T) (from UniProt P08670 1-466)
